Test results published in article doi:10.1101/2022.06.07.494883.
These are yes or no findings as the source states them, for the method shown. Some results given as binding are weak or reduced against the parent protein; the word gives no strength.

Chains of the proteins cited; added tags and fusions are not shown. Lines headed by an entry give the natural chain unless they say otherwise; changes in a name come on top.
UniProt P0C7B7: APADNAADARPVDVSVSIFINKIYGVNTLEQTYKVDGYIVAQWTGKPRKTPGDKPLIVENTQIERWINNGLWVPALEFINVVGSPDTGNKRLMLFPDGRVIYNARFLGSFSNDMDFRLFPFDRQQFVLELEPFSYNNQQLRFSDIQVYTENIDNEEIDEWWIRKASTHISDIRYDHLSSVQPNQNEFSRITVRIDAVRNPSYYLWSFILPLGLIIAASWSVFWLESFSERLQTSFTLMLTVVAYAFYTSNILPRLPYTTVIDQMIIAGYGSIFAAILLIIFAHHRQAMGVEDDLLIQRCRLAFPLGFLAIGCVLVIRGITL

Tests used:
Assay in all cases: cryo-EM structure
[1] = target: ELIC triple mutant V261Y/G319F/I320F (ELIC3) (Erwinia chrysanthemi) (UniProt P0C7B7)
[2] = target: ELIC quintuple mutant P254G/C300S/V261Y/G319F/I320F (ELIC5) (Erwinia chrysanthemi) (UniProt P0C7B7)
[3] = target: Erwinia chrysanthemi ligand-gated ion channel (ELIC), wild type (Erwinia chrysanthemi) (UniProt P0C7B7)

Substance: ELIC triple mutant V261Y/G319F/I320F (ELIC3) (from UniProt P0C7B7 1-321)
- binding [1]: binds

Substance: ELIC quintuple mutant P254G/C300S/V261Y/G319F/I320F (ELIC5) (from UniProt P0C7B7 1-321)
- binding [2]: binds

Substance: Erwinia chrysanthemi ligand-gated ion channel (ELIC), wild type (from UniProt P0C7B7 1-321)
- binding [3]: binds
